These are yes or no findings as the source states them, for the method shown. Some results given as binding are weak or reduced against the parent protein; the word gives no strength. Each block holds one binder with its values, some of them ahead of it.
Legend:
Experiment in all cases: two-hybrid; AD (pGAD-C(1)) and BD (pGBD-C(1)) fusions in yeast PJ69-4; dual transformants tested on media lacking leucine, tryptophan and adenine; positive if all tested colonies (4 to 10) grew; both combinations of clones tested whenever possible
AtFIPS5 (Arabidopsis) = biological target: T1, AtFIPS5 (Arabidopsis) (UniProt F4KDH9)
T1 sequence: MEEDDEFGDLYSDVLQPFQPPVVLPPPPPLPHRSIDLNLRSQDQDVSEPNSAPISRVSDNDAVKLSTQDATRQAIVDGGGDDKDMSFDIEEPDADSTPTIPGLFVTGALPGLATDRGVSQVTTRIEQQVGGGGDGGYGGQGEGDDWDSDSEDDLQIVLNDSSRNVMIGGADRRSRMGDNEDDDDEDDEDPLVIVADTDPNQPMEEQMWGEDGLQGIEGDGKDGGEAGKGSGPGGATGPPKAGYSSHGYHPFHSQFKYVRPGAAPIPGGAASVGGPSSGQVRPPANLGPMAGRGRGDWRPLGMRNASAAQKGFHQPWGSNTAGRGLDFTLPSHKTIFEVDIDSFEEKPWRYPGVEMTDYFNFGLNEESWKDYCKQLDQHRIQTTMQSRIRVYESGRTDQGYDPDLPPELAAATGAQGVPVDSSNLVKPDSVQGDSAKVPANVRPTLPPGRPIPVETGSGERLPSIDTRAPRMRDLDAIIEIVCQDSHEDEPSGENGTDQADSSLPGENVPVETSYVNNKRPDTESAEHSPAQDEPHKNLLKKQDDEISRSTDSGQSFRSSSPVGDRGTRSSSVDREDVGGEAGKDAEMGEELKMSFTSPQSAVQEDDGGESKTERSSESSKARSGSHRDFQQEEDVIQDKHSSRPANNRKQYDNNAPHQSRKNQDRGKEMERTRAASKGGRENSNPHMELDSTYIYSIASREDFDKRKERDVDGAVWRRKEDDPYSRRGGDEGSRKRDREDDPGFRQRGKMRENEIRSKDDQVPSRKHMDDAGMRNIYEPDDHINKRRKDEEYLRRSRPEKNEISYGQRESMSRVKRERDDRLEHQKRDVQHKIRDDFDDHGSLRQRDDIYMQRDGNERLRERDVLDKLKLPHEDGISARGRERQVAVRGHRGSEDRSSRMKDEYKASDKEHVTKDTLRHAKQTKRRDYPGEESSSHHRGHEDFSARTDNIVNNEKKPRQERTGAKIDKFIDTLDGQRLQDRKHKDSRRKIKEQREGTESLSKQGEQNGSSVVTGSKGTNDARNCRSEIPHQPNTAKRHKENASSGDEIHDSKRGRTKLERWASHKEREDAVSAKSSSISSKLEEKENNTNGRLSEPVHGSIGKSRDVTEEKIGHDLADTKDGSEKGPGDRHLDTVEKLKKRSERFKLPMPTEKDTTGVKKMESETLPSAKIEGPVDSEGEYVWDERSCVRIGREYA

AtFIPS3 (Arabidopsis) = biological target: T2, AtFIPS3 (Arabidopsis) (UniProt F4JC20)
T2 sequence: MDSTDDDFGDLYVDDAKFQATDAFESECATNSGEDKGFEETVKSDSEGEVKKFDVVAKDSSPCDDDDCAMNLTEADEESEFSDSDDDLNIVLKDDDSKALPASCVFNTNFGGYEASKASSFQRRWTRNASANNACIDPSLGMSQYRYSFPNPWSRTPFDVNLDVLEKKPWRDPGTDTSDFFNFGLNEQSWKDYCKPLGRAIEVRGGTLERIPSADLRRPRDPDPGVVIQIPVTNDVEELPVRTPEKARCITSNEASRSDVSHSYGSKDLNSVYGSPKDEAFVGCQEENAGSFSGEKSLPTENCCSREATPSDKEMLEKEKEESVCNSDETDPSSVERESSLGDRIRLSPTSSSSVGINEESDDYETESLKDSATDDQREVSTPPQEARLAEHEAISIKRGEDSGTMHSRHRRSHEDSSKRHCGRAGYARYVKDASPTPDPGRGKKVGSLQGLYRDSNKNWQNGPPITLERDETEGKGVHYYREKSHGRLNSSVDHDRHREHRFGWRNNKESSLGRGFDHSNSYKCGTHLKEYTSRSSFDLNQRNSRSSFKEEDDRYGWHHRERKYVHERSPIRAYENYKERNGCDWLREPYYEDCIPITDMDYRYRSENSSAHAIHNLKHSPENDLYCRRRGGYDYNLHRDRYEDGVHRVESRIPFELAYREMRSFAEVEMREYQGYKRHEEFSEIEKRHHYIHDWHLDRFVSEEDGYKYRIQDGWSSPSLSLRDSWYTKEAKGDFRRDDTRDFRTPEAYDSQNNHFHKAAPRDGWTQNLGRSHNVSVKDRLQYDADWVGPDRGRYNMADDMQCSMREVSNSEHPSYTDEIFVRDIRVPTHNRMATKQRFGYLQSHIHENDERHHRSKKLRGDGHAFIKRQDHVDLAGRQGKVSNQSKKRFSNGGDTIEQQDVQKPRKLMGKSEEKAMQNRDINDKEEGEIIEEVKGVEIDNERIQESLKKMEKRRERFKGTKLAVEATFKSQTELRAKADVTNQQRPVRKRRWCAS

[1] = biological target: T3, AtCPSF73-II (Arabidopsis) (UniProt Q8GUU3)
T3 sequence: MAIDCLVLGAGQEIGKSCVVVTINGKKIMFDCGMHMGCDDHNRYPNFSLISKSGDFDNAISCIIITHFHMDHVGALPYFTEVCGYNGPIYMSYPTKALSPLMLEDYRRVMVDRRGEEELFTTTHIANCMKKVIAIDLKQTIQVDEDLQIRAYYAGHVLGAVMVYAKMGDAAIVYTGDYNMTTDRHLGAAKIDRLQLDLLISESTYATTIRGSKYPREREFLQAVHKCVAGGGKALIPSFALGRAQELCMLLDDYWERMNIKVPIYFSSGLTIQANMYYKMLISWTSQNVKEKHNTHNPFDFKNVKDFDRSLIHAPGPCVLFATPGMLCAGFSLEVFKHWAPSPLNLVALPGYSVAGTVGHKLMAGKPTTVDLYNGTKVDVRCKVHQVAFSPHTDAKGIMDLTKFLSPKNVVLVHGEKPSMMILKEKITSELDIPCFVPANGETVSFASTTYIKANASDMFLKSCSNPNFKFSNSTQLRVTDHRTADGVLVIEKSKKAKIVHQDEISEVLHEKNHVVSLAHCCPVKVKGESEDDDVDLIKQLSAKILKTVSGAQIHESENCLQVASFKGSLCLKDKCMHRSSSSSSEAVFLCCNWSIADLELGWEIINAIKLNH

AtCPSF73-I (Arabidopsis) = biological target: T4, AtCPSF73-I (Arabidopsis) (UniProt Q9C952)
T4 sequence: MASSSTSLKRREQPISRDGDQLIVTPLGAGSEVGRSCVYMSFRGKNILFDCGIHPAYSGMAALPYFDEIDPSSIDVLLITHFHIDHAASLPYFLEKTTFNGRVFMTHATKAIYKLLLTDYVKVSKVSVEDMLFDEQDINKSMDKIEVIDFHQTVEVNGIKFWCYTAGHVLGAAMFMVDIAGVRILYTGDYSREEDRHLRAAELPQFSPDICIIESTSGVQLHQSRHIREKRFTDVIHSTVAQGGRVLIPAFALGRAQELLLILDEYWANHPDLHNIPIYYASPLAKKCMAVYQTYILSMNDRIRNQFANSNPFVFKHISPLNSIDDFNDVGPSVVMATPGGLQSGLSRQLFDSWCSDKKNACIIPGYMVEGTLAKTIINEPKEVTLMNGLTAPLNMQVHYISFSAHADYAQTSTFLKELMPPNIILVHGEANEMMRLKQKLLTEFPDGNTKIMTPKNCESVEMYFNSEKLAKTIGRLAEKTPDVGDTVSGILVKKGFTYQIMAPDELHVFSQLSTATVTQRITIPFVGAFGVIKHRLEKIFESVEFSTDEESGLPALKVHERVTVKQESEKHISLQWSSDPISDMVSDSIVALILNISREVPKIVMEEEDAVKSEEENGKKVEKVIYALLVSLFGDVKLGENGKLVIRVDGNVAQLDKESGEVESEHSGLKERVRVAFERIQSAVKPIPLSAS

AtCSTF77 (Arabidopsis) = biological target: T5, AtCSTF77 (Arabidopsis) (UniProt Q8GUP1)
T5 sequence: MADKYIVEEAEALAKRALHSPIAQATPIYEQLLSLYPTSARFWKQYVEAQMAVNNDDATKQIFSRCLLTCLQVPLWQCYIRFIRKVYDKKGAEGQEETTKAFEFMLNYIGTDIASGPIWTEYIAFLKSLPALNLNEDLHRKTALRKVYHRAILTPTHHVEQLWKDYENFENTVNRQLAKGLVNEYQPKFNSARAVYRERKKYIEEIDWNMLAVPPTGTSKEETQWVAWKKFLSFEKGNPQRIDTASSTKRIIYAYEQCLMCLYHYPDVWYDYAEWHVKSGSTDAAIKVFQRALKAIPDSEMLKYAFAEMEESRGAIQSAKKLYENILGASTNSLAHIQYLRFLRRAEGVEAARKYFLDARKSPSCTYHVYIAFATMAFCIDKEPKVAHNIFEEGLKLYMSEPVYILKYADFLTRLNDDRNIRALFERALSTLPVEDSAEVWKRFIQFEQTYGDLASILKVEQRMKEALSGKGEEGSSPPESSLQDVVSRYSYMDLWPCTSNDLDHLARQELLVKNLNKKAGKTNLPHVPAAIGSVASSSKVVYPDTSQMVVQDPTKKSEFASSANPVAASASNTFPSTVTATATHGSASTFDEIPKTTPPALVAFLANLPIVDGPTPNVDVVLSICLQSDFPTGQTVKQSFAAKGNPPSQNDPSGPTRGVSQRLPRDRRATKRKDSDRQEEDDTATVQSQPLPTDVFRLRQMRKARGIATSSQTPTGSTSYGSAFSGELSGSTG

- binding (AtFIPS5 (Arabidopsis)): binds
- binding (AtFIPS3 (Arabidopsis)): binds
B1: AtCLPS5 (protein, UniProt Q9FLE2 1-424)
chain: MFGPQIRRVKLEKQSELRIELQPTSPLRLRLLDGKAEIFGYELPHEVWITFPPLMTFAVFTWYGATIEIDGITGNEYISCETPMVNYLGLHNSLQVQRHRVTSSTRDSASSQEGPRVIIVGDIDSGKSTLAKMLLNWAVKDGWKPTFVDLNVGQSSITIPGTIAAAPIKMLVDPVEGFPLDKALIHYFGLTNPSVNLRLYRTLVEELARELKEEFSANAESRASGMVIDTMGFIVREGYALLLHAIRTFNASLVIVVGQEEKLVYDLKKNLKFKKNLQVLNLEKSEGVFSRSSDFRKTLRNSNIQNYFYGVTNDLTVYTKTVKFSDVQVYRIGDFRVSGSTSAHQRGNDPLKITLVTIDEHLVNKVLAISYAIKPDQIISSIVAGFVCIKNVDISEERITYVSPSAAELPSKILILGTLTWHVT

- binding [1]: no binding
- binding (AtCPSF73-I (Arabidopsis)): no binding
B2: AtCPSF73-I (protein, UniProt Q9C952 1-693)
chain: T4 sequence

- binding (AtCSTF77 (Arabidopsis)): binds
B3: AtPCFS5 (protein, UniProt Q9FIX8 1-410)
chain: MASNGSFSAQRNANAGTTMKRRNDNRGYGGGIGCYQEERNRYAPPQKRFRSQLQQQFRSGHNPLYHYGSNTNNNVSRVSSQSYNNYGVDVIASNSSFALPNNDSNTNNYQKPFVVYGNPNPQIVPLPLPYRKLDPLDSLPQWVPNSTPNYPVRSSNFVPNTPDFTNVQNPMNHSNMVSVVSQSMHQPIVLSKELTDLLSLLNNEKEKKTSEASNNDSLPVGLSFDNPSSLNVRHESVIKSLYSDMPRQCTSCGVRFKCQEEHSKHMDWHVRKNRSVKTTTRLGQQPKKSRGWLASASLWLCAPTGGGTVEVASFGGGEMQKKNEKDQVQKQHMVPADEDQKNCALCVEPFEEFFSHEADDWMYKDAVYLTKNGRIVHVKCMPEPRPAKDLREPSRVMSVTVPSVAKAILC

Reference: PMC2391170
